Data as given in PubChem BioAssay AID652272 (Drosophila RNAi Screening Center, 2013)

Assay: 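Genes whose knock-down decreases or increases Hedgehog reporter output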 (primary screen)
Cell system: Drosophila clone 8 (Cl8) cells
Knock-down reagent: long dsRNA against Drosophila genes
Detection: 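Plate reader light from a firefly reporter under a ptc promoter fragment that responds to Hedgehog, with Renilla light as transfection reference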
Scale: firefly Hh reporter signal: higher = more ptc reporter light; Renilla reference signal: higher = more Renilla control light
Call rule: 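Hit when the z-score averaged over two replicates is under -2 or over +3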
Meaning of the calls: active = hit: reporter lowered or raised; inactive = not a hit
The screen tested about 21,000 reagents; below is an unselected part of those that have a named target and a result. In the full data, 503 (2.4%) are marked active. 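Raw plate light values, not normalised; calls rest on replicate z-scores that were not deposited; hits include reporter decreases as well as increases.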 A number with no mark means an inactive call. A plus sign joins genes that one reagent is predicted to hit. Not stated in the record: the amount of reagent, the time to read-out.

CG17648 [DRSC00508] → firefly Hh reporter signal, replicate 1: 1.35e5; firefly Hh reporter signal, replicate 2: 72320; Renilla reference signal, replicate 1: 2914; Renilla reference signal, replicate 2: 1895
mgl [DRSC17800] → firefly Hh reporter signal, replicate 1: 93688; firefly Hh reporter signal, replicate 2: 3.61e5; Renilla reference signal, replicate 1: 2684; Renilla reference signal, replicate 2: 12272
mgl [DRSC17823] → firefly Hh reporter signal, replicate 1: 67724; firefly Hh reporter signal, replicate 2: 53440; Renilla reference signal, replicate 1: 2097; Renilla reference signal, replicate 2: 1367
mgl [DRSC17859] → firefly Hh reporter signal, replicate 1: 1.03e5; firefly Hh reporter signal, replicate 2: 3.80e5; Renilla reference signal, replicate 1: 3593; Renilla reference signal, replicate 2: 13209
mgl [DRSC18004] → firefly Hh reporter signal, replicate 1: 94935; firefly Hh reporter signal, replicate 2: 2.62e5; Renilla reference signal, replicate 1: 2757; Renilla reference signal, replicate 2: 9751
CG5715 [DRSC15860] → firefly Hh reporter signal, replicate 1: 4.11e5; firefly Hh reporter signal, replicate 2: 63728; Renilla reference signal, replicate 1: 21749; Renilla reference signal, replicate 2: 2593
Or85e [DRSC16768] → firefly Hh reporter signal, replicate 1: 68453; firefly Hh reporter signal, replicate 2: 1.22e5; Renilla reference signal, replicate 1: 1701; Renilla reference signal, replicate 2: 3511
bib [DRSC03496] → firefly Hh reporter signal, replicate 1: 98594; firefly Hh reporter signal, replicate 2: 44052; Renilla reference signal, replicate 1: 4225; Renilla reference signal, replicate 2: 2057
CG9760 [DRSC11101] → firefly Hh reporter signal, replicate 1: 25626; firefly Hh reporter signal, replicate 2: 54228; firefly Hh reporter signal, replicate 3: 67713; Renilla reference signal, replicate 1: 4643; Renilla reference signal, replicate 2: 4251

Records listed so far whose target name begins with M or m (4):
mgl [DRSC17800] → firefly Hh reporter signal, replicate 1: 93688; firefly Hh reporter signal, replicate 2: 3.61e5; Renilla reference signal, replicate 1: 2684; Renilla reference signal, replicate 2: 12272
mgl [DRSC17823] → firefly Hh reporter signal, replicate 1: 67724; firefly Hh reporter signal, replicate 2: 53440; Renilla reference signal, replicate 1: 2097; Renilla reference signal, replicate 2: 1367
mgl [DRSC17859] → firefly Hh reporter signal, replicate 1: 1.03e5; firefly Hh reporter signal, replicate 2: 3.80e5; Renilla reference signal, replicate 1: 3593; Renilla reference signal, replicate 2: 13209
mgl [DRSC18004] → firefly Hh reporter signal, replicate 1: 94935; firefly Hh reporter signal, replicate 2: 2.62e5; Renilla reference signal, replicate 1: 2757; Renilla reference signal, replicate 2: 9751

Additional records:
grim [DRSC11352] → firefly Hh reporter signal, replicate 1: 53440; Renilla reference signal, replicate 1: 2507; Renilla reference signal, replicate 2: 1914
pug [DRSC17036] → firefly Hh reporter signal, replicate 1: 57785; firefly Hh reporter signal, replicate 2: 97104; Renilla reference signal, replicate 1: 2329; Renilla reference signal, replicate 2: 2726
Tsen34 + Trl [DRSC10014] → firefly Hh reporter signal, replicate 1: 78839; Renilla reference signal, replicate 1: 4055; Renilla reference signal, replicate 2: 2182
Arl1 [DRSC09667] → firefly Hh reporter signal, replicate 1: 1.54e5; Renilla reference signal, replicate 1: 2387; Renilla reference signal, replicate 2: 4355
mah [DRSC14645] → firefly Hh reporter signal, replicate 1: 5.73e5; firefly Hh reporter signal, replicate 2: 91408; Renilla reference signal, replicate 1: 27141; Renilla reference signal, replicate 2: 2772
CG9903 [DRSC20213] → firefly Hh reporter signal, replicate 1: 68992; firefly Hh reporter signal, replicate 2: 2.17e5; Renilla reference signal, replicate 1: 2922; Renilla reference signal, replicate 2: 9094
CG43345 + CG43346 [DRSC03164] → firefly Hh reporter signal, replicate 1: 96022; firefly Hh reporter signal, replicate 2: 1.42e5; Renilla reference signal, replicate 1: 4048; Renilla reference signal, replicate 2: 4812
cd [DRSC16157] → firefly Hh reporter signal, replicate 1: 5.13e5; firefly Hh reporter signal, replicate 2: 1.13e5; Renilla reference signal, replicate 1: 27738; Renilla reference signal, replicate 2: 3622
Vajk1 [DRSC01882] → firefly Hh reporter signal, replicate 1: 1.64e5; firefly Hh reporter signal, replicate 2: 84802; Renilla reference signal, replicate 1: 4530; Renilla reference signal, replicate 2: 7808
CG12729 [DRSC17884] → firefly Hh reporter signal, replicate 1: 80771; firefly Hh reporter signal, replicate 2: 1.61e5; Renilla reference signal, replicate 1: 2677; Renilla reference signal, replicate 2: 6290
nop5 [DRSC03582] → firefly Hh reporter signal, replicate 1: 1.22e5; firefly Hh reporter signal, replicate 2: 38672; Renilla reference signal, replicate 1: 3412; Renilla reference signal, replicate 2: 4854
Ugt37A1 [DRSC02114] → firefly Hh reporter signal, replicate 1: 1.04e5; firefly Hh reporter signal, replicate 2: 66796; Renilla reference signal, replicate 1: 2773; Renilla reference signal, replicate 2: 6146
Dys + snoRNA:Me18S-A1374 [DRSC16232] → firefly Hh reporter signal, replicate 1: 5.32e5; firefly Hh reporter signal, replicate 2: 1.00e5; Renilla reference signal, replicate 1: 36407; Renilla reference signal, replicate 2: 2358
Ugt36D1 [DRSC02600] → firefly Hh reporter signal, replicate 1: 79778; firefly Hh reporter signal, replicate 2: 72325; Renilla reference signal, replicate 1: 3579; Renilla reference signal, replicate 2: 3079
Sqor [DRSC08453] → firefly Hh reporter signal, replicate 1: 1.14e5; firefly Hh reporter signal, replicate 2: 58330; Renilla reference signal, replicate 1: 4457; Renilla reference signal, replicate 2: 2091
CG9410 + CG15908 [DRSC04976] → firefly Hh reporter signal, replicate 1: 66791; firefly Hh reporter signal, replicate 2: 37860; Renilla reference signal, replicate 1: 1760; Renilla reference signal, replicate 2: 3657
CG9410 + CG15908 [DRSC05001] → firefly Hh reporter signal, replicate 1: 86578; firefly Hh reporter signal, replicate 2: 62211; Renilla reference signal, replicate 1: 2124; Renilla reference signal, replicate 2: 6297
Elba2 [DRSC00731] → firefly Hh reporter signal, replicate 1: 88696; firefly Hh reporter signal, replicate 2: 57236; Renilla reference signal, replicate 1: 3799; Renilla reference signal, replicate 2: 2432
